According to article PMC7036364:
Where a protein sequence is shown, tags need not be part of it.

Molecular target: T1, GST-StMbp1 (Setosphaeria turcica 01-23) (UniProt R0KRN6)
T1 sequence (looked up): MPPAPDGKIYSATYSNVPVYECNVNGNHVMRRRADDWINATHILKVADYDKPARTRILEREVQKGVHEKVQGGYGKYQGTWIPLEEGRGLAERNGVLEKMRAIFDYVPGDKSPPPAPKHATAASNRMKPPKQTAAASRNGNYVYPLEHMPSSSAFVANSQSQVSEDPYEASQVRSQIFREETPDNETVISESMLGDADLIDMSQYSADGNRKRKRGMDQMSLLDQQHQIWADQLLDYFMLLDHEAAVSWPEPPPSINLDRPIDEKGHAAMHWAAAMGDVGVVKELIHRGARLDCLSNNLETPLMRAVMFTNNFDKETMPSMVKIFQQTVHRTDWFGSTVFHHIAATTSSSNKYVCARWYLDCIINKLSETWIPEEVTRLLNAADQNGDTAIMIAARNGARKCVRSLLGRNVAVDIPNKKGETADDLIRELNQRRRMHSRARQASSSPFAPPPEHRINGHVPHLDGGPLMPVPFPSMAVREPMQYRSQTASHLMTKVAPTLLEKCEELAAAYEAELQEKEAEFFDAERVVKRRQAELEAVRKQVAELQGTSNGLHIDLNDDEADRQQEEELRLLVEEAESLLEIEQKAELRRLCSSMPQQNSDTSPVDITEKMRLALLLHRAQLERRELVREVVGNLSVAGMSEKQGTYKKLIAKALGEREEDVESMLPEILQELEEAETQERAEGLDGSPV
Assay: EMSA
Settings: 0.5 ug DNA in 20 ul, 1% agarose, increasing GST-StMbp1; 50 mM Tris-HCl pH 7.8, 50 mM NaCl, 1 mM EDTA, 0.05% NP-40, 2.5% glycerol, 25 C, 15 min; 1% agarose gel; recombinant protein; residues 1-691; protein details: N-terminal GST (pGEX-6P-3); label: none (ethidium bromide stain)

“AAGATGCTGTAATTGATAGCAAAACACACGGACGCGACGTCTATCCACCCCGGCTTATGGGAGGGGATCCGAGCCACTAGGCCCGAAGTTGAGACAGCGCCTTCGCTTTCCAGGTCCCCACGTCTCATGTTTCCTATCACCCGCAACGCATTGGCTGCATTTCTCAGCCGCTGGGCTCCACGTCTAGCGCGCCATCTATCAATAGGCATAGGAGCTTACTCGGACACACAGCCGGCATCTGCACGCCATCAACCCTCGCAATCATGGCTGGACTATCCAGGAAGGGAAGTGGTCCGCGGTCCACACTTGAGCTCACGTCAATATGCCTCTGCAGTACACTCGCTCCGCAATACATGGATTGTAACAGATCCGGCACGCACTGTGCTTGTCATCGCGCGATCCACGCCCTGACCACCTTCTTGACATCTCACGCCTATCATTGCCGCCTGGACGCATACATATACCAGCACCTCCAAGCCCTAAACTTTTCATTATCCCAT (double strand) [StPKS promoter fragment (-738 to -238)]”: binds.
